Test results reported in PubChem BioAssay AID485353 (National Center for Advancing Translational Sciences (NCATS), 2010).
Among all 330,000 compounds or so, about 610 (0.18%) were called active. This list was built around the results that the source calls inconclusive (neither active nor inactive); the mix of calls is not that of the screen. Calls follow the shape of the full dose curve. Potencies of inconclusive entries are doubtful fits and often do not repeat. Where a structure was tested more than once in an assay, its records may differ in their call.

Experiment: qHTS of Yeast-based Assay for SARS-CoV PLP; also: nearly all actives have a fitted effect of over 55% in size; as to activity, positive = growth rescue: 0% is about no effect
Conditions: S. cerevisiae expressing SARS-CoV PLpro; Potency: growth rescue; activity, positive = growth rescue: at 32.9 µM (top of the series)
Potency is read from the fitted curve at half-maximal effect.

SMILES	Potency	activity, positive = growth rescue
Cc1ccc(C(=O)NCC(=O)NCc2cc(=O)n(C)c(=O)n2C)cc1C	inconclusive: 20 µM [activator, single point]	–
Cc1c(S(=O)(=O)N2CCN(c3cccc(Cl)c3)CC2)c(=O)n(C)c(=O)n1C	inconclusive: 3.98 µM [activator, single point]	–
COc1ccc(NC(=O)c2ccc(N3CCOCC3)nc2)cc1	inconclusive: 12.6 µM [activator, single point]	–
CC(C)c1nc2sc(C(=O)O)c(N)c2c2c1CCCC2	–	inactive: -0.735%
CCCC(=O)c1cn(CC(=O)OC)c2ccccc12	inconclusive: 3.98 µM [activator, single point]	–
CCc1c(C)[nH]c2ccccc2c1=O	inconclusive: 3.16 µM [activator, partial curve]	–
CCOC(=O)N1c2ccccc2C=CC1OCC (stereo not drawn)	inconclusive: 4.47 µM [activator, single point]	–
Cc1c(C=O)c2ccccc2n1CCOc1ccccc1F	inconclusive: 12.6 µM [activator, single point]	–
CN(C)C1CCN(Cc2cc(COCc3ccccc3)c3cccnc3c2O)C1 (stereo not drawn)	active: 10 µM	–
O=C(N/N=C/c1ccc(OCC(=O)N2CCCCC2)cc1)c1ccccc1O	inconclusive: 11.2 µM [activator, partial curve]	–
O=C(NC1=NCCS1)Nc1ccccc1	–	inactive: -7.65%
COc1ccc(S(=O)(=O)N2CCCN(Cc3cccc(F)c3)CC2)cc1	inconclusive: 3.98 µM [activator, single point]	–
Cc1ccc2c(c1)C1CN(C)CCC1N2C(=O)Nc1cccc(Cl)c1 (stereo not drawn)	inconclusive: 3.16 µM [activator, single point]	–
CCOC(=O)C(C)n1cnc2c(nnn2Cc2ccc(Cl)cc2)c1=O (stereo not drawn)	–	inactive: 8.29%
COc1cc2c(cc1OC)-c1cc(N3CCCCCC3)nc(=O)n1CC2	inconclusive: 2.24 µM [activator, partial curve]	–
COc1cccc(CC(=O)OCC(=O)NC2CCCCCC2)c1	inconclusive: 3.55 µM [activator, full curve]	–
COCc1ccc(C(=O)OC(C)C(=O)Nc2c(C)n(C)n(-c3ccccc3)c2=O)cc1 (stereo not drawn)	–	inactive: 2.32%
COc1cc(CC(=O)Nc2ccc3nc(C)sc3c2)cc(OC)c1OC	inconclusive: 1.41 µM [activator, partial curve]	–
O=C(CSc1ncn[nH]1)Nc1ccccc1-c1ccccc1	inconclusive: 2.82 µM [activator, single point]	–
Cc1ccc(NC(=O)c2cc(C(=O)c3cc(Cl)ccc3O)cn(-c3ccc(C)cc3)c2=O)cc1	inconclusive: 2.24 µM [activator, partial curve]	–
O=C(c1ccc(CS(=O)c2cccc(Cl)c2)o1)N1CCOCC1 (stereo not drawn)	inconclusive: 3.98 µM [activator, single point]	–
CC(C)N(Cc1ccccc1)C(=O)CN1C(=O)c2ccccc2C1=O	inconclusive: 0.398 µM [activator, full curve, poor fit]	–
O=C(C1CCN(S(=O)(=O)c2ccccc2)CC1)N1CCN(Cc2ccc3c(c2)OCO3)CC1	inconclusive: 10 µM [activator, partial curve]	–

Reprinted from the listing for reference:
SMILES	Potency	activity, positive = growth rescue
CCOC(=O)C(C)n1cnc2c(nnn2Cc2ccc(Cl)cc2)c1=O (stereo not drawn)	–	inactive: 8.29%
COc1cc2c(cc1OC)-c1cc(N3CCCCCC3)nc(=O)n1CC2	inconclusive: 2.24 µM [activator, partial curve]	–
COc1cccc(CC(=O)OCC(=O)NC2CCCCCC2)c1	inconclusive: 3.55 µM [activator, full curve]	–
COCc1ccc(C(=O)OC(C)C(=O)Nc2c(C)n(C)n(-c3ccccc3)c2=O)cc1 (stereo not drawn)	–	inactive: 2.32%

(continued)

SMILES	Potency	activity, positive = growth rescue
Cc1ccc(CN2CCC(n3nccc3NC(=O)C3CCOC3)CC2)cc1C (stereo not drawn)	inconclusive: 2.82 µM [activator, single point]	–
Cc1ccc(S(=O)(=O)N2CCCCC2)cc1NC(=O)CCOc1ccccc1	inconclusive: 20 µM [activator, single point]	–
Nc1ccc(S(=O)(=O)Nc2nccc(/C=C/c3cccc(Br)c3)n2)cc1	–	inactive: -2.37%
O=C(NNC(=S)NC1CCCCC1)c1ccccc1O	inconclusive: 11.2 µM [activator, partial curve]	–
CC1CC(O)(Cc2ccccc2)C(C)CN1C (stereo not drawn)	inconclusive: 4.47 µM [activator, single point]	–
CCOC(=O)N1CCN(C(=O)c2cc(-c3ccc(OCC)cc3)nc3ccccc23)CC1	inconclusive: 4.47 µM [activator, single point]	–
CCc1noc(C)c1C(=O)NC1CCCc2c1cnn2-c1ccc(C(C)(C)C)cc1 (stereo not drawn)	inconclusive: 11.2 µM [activator, single point]	–
CCN1CCN(Cc2nc3c(c(=O)n(C)c(=O)n3C)n2C(C)C(C)=O)CC1 (stereo not drawn)	inconclusive: 4.47 µM [activator, single point]	–
Cc1ccc(S(=O)(=O)N2[C@@H](c3ccc(Cl)c(Cl)c3)C(C(=O)O)=C[C@H]2CC2CCCC2)cc1	inconclusive: 10 µM [activator, single point]	–
CC(C)c1nc(SCC(=O)NCC2CCCO2)c2c(=O)n(C)c(=O)n(C)c2n1 (stereo not drawn)	inconclusive: 3.16 µM [activator, single point]	–
CCOc1ccc(C(=O)Nc2ccc(NC(=O)c3cccs3)cc2)cc1[N+](=O)[O-]	active: 3.98 µM	–
Cn1nnc2cc(C(=O)N3CCN(c4ccccn4)CC3)ccc21	–	inactive: -0.399%
CCN(CC)C(=O)CSc1nsc(SCC(=O)N(CC)CC)c1C#N	inconclusive: 2.51 µM [activator, partial curve]	–
COc1ccc(NC(=O)CN(C)C(=O)Cc2ccc3c(c2)CCC3)cc1	inconclusive: 20 µM [activator, single point]	–
O=C(COc1ccc(Br)cc1CO)Nc1ccc(F)cc1	–	inactive: -10.6%
Cc1cccc(NC(=S)N/N=C2\CC(C)(C)Oc3ccc(O)cc32)c1	inconclusive: 4.47 µM [activator, single point]	–
CC(Oc1ccccc1)C(=O)NNS(=O)(=O)c1ccc([N+](=O)[O-])cc1 (stereo not drawn)	inconclusive: 0.355 µM [activator, partial curve, poor fit]	–
N#C/C(=C\c1ccccc1)c1nc2ncccc2[nH]1	inconclusive: 20 µM [activator, single point]	–
O/N=C(\COc1ccccc1O)c1ccccc1	inconclusive: 3.16 µM [activator, single point]	–
O=C(N/N=C\c1cc(Br)ccc1O)c1ccc(S(=O)(=O)N2CCCCC2)cc1	inconclusive: 0.398 µM [activator, full curve, poor fit]	–
CC(Sc1nnc(-c2ccco2)n1C)C(=O)N1C(C)CCCC1C (stereo not drawn)	inconclusive: 0.708 µM [activator, full curve]	–
COc1ccc(C(CNC(=O)c2ccc(Br)o2)N2CCN(C)CC2)cc1 (stereo not drawn)	inconclusive: 4.47 µM [activator, partial curve]	–
COc1cccc(NC(=O)CCNS(=O)(=O)c2ccc3c(c2)oc(=O)n3C)c1	inconclusive: 22.4 µM [activator, single point]	–

SMILES	Potency	activity, positive = growth rescue
CCCCN(C(=N)N1CCCCC1)c1nc(C)c([N+](=O)[O-])c(=O)[nH]1	inconclusive: 22.4 µM [activator, single point]	–
CCN(CC)C1=CC(=[N+]2CCCC2)CC(C)(C)C1	inconclusive: 12.6 µM [activator, partial curve]	–
CC1CC(C)CN(S(=O)(=O)c2cccc(C(=O)N3C(=O)c4cccc(N)c4C3=O)c2)C1 (stereo not drawn)	inconclusive: 4.47 µM [activator, single point]	–
NC(CO)C(=O)NNCc1ccc(O)c(O)c1O (stereo not drawn)	inconclusive: 4.47 µM [activator, single point]	–
Oc1ccc(CNc2ccccc2F)c2cccnc12	inconclusive: 20 µM [activator, single point]	–
Cc1ccc(S(=O)(=O)NCCC(=O)NCc2ccc3c(c2)OCO3)cc1C	active: 15.8 µM	–
CC(C)n1nnnc1SCC(=O)N(C)C1CCS(=O)(=O)C1 (stereo not drawn)	–	inactive: 12.8%
COc1ccc(NC(=O)CSc2nnc3ccc(-c4cccnc4)nn23)cc1	inconclusive: 3.98 µM [activator, single point]	–
CC(=O)Oc1cc2cccc(OC(C)=O)c(=O)c2c(OC(C)=O)c1OC(C)=O	active: 8.91 µM	–
Cc1ccc(OCCNC(=O)CCC(=O)N2CCOCC2)cc1	–	inactive: 9.35%
COCCN1C(=O)N(c2cccc(C)c2)C(=O)C1CC(=O)Nc1ccc(OC)cc1 (stereo not drawn)	inconclusive: 20 µM [activator, single point]	–
CC(OC(=O)c1ccccc1Nc1ccc(SC(F)F)cc1)C(N)=O (stereo not drawn)	inconclusive: 2.51 µM [activator, single point]	–
N#C/C(=C\c1ccc(O)c(O)c1)C(=O)Nc1cccc2ncccc12	inconclusive: 12.6 µM [activator, single point]	–
Cc1ccc(NC(=O)/C=C/c2ccc3c(c2)OCO3)nc1	inconclusive: 17.8 µM [activator, single point]	–
CCc1ccc(CN(C)C(=O)c2cccc(S(=O)(=O)Nc3ccccc3OC)c2)cc1	–	inactive: 23%
Cc1ccc(CNC(=O)/C=C/c2ccccc2Cl)cc1	inconclusive: 4.47 µM [activator, single point]	–
CN(C)CCCN(C(=O)c1ccc(S(=O)(=O)N2CCCCCC2)cc1)c1nc2ccc(F)cc2s1	inconclusive: 20 µM [activator, partial curve, poor fit]	–
CSc1nc2c(cc1C#N)C(=O)CC(C)(C)C2	–	inactive: -0.513%
CCOC(=O)C1CCCN(C2=C(NS(=O)(=O)c3ccc(Br)cc3)C(=O)c3ccccc3C2=O)C1 (stereo not drawn)	inconclusive: 0.398 µM [activator, full curve, poor fit]	–
CCCNC(=O)C(=O)NCCC1=CCCCC1	–	inactive: 0.904%
CCOC(=O)N(C)c1ccc(C(O)(C(F)(F)F)C(F)(F)F)cc1	–	inactive: 0.423%
O=C1COc2ccc(S(=O)(=O)CCC(=O)N3CCN(c4cccc(C(F)(F)F)c4)CC3)cc2N1	–	inactive: 0.493%

Gathered by group: those above containing a CF3 group.
SMILES	Potency	activity, positive = growth rescue
CCOC(=O)N(C)c1ccc(C(O)(C(F)(F)F)C(F)(F)F)cc1	–	inactive: 0.423%
O=C1COc2ccc(S(=O)(=O)CCC(=O)N3CCN(c4cccc(C(F)(F)F)c4)CC3)cc2N1	–	inactive: 0.493%
